This test addresses NR2B subunit of the NMDA receptor (rat (endogenous in spinal cord dorsal horn)) (UniProt Q00960). Kind of test: co-IP; NR2B immunoprecipitated (5 ug rabbit anti-NR2B, overnight at 4 °C, protein-A sepharose) from 500 ug lysate of rat lumbar dorsal horn in 1% NP-40, 20 mM Tris pH 8, 137 mM NaCl; blots for phospho-Src (rats given intrathecal saline, ephrinB2-Fc, or PP2 then ephrinB2-Fc) or EphB1 (naive rats).

Amino acid sequences for entries named in this document (tags omitted). Residues count along the entry.
UniProt Q00960, residues 27-1482: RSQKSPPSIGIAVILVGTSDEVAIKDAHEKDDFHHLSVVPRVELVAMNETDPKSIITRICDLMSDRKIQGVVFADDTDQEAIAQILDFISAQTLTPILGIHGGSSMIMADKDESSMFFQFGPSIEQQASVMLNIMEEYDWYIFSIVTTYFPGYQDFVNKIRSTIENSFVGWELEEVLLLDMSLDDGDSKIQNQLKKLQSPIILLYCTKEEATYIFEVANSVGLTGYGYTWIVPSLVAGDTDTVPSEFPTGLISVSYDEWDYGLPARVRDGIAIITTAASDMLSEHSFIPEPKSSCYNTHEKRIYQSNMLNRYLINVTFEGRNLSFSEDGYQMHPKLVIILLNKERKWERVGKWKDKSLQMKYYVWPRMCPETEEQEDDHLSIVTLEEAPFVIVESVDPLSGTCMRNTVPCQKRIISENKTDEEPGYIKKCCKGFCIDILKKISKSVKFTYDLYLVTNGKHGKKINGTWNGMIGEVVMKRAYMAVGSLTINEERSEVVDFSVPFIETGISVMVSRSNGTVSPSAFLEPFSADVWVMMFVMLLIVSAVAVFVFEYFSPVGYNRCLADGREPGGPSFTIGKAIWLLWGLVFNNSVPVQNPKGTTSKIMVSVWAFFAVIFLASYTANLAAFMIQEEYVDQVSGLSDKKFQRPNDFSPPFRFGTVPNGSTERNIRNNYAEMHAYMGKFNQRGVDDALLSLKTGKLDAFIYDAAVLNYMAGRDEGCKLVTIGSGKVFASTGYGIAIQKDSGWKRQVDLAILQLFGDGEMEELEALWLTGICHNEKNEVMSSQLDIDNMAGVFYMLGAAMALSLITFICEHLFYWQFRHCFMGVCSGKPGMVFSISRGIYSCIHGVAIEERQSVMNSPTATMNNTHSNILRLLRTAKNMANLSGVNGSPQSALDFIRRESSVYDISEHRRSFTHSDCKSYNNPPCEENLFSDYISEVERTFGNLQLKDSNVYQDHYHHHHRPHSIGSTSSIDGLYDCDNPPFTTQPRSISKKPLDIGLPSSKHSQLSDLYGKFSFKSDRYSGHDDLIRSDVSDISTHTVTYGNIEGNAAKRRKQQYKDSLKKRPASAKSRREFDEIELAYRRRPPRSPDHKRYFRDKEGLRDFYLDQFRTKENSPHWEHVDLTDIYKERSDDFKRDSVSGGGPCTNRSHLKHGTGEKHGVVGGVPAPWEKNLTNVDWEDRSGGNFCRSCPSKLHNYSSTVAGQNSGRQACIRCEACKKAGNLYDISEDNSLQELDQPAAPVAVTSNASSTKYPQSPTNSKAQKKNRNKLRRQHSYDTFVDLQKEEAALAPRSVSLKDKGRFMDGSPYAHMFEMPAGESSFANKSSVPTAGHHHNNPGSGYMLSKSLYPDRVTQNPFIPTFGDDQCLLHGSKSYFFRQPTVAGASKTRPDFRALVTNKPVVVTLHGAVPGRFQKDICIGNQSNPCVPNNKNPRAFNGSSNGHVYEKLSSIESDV
UniProt P09759, residues 18-984: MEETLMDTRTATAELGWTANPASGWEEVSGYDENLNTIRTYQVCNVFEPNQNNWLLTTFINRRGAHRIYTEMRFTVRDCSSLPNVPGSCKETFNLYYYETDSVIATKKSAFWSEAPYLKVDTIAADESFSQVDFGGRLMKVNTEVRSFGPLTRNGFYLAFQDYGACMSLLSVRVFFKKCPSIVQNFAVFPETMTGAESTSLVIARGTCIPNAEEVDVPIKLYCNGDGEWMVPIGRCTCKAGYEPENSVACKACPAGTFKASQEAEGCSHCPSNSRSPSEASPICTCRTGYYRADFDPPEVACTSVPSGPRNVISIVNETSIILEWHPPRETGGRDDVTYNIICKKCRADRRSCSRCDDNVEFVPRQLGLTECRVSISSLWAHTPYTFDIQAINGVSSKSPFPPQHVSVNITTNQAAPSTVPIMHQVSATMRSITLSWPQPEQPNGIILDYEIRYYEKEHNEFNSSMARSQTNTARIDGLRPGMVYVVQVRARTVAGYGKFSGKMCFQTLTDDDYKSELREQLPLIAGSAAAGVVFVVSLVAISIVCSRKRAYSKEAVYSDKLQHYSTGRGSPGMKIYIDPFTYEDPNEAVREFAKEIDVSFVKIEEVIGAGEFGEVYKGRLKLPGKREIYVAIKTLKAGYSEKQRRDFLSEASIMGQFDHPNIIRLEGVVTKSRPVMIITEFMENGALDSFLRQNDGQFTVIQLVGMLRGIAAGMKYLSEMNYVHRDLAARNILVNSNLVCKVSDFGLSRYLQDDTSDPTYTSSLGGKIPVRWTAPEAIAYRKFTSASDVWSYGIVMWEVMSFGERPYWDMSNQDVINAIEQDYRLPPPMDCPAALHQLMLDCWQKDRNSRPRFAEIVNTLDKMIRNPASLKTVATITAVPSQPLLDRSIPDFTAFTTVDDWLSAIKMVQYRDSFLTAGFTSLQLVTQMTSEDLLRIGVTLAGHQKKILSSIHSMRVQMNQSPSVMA

The source of these data is PMC2568875.

These are yes or no findings as the source states them, for the method shown. Binding seen in cells or lysates may run through a third protein. Some results given as binding are weak or reduced against the parent protein; the word gives no strength.

As to “EphB1 receptor (from UniProt P09759 18-984)”, the binding result is listed as “binds”.
